# In the supplement of paper PMC9254222:
# In all, about 1,100 compounds were measured (“Wnt reporter firefly/Renilla luciferase ratio relative to plate median”: median about 1.1, highest 2% from about 1.6 on). This is a selection; strong and weak results do not stand in their true shares.
# Tested on: HEK293T (UBE3A T485A transfected, BAR Wnt reporter)
# Assay: Wnt reporter firefly/Renilla luciferase ratio relative to plate median (fold (linear ratio)); higher = more Wnt/beta-catenin reporter activation
# Details: 24 h
# Procedure, shortened: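 HEK293T cells were grown in DMEM with 10% FBS at 37°C and 5% CO2, at 4500 cells/well in white 384-well plates. They were transfected with a BAR firefly luciferase Wnt reporter, TK-Renilla and an expression plasmid using Fugene 6. Four hours later, robots dosed the chemicals at 0.01–100 uM for 24 h, followed by Dual-Glo luciferase readout. Wnt activity (firefly/Renilla ratio) and cell health (raw Renilla) were median-centred per plate, averaged over four biological replicates.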
compound,measurement,setting,value
Cc1ccc(Cl)cc1 [4-Chlorotoluene],Wnt reporter firefly/Renilla luciferase ratio,concentration: 0.1 uM,1.3
same,Wnt reporter firefly/Renilla luciferase ratio,concentration: 1 uM,0.871
same,Wnt reporter firefly/Renilla luciferase ratio,concentration: 10 uM,1.02
same,Wnt reporter firefly/Renilla luciferase ratio,concentration: 100 uM,0.878
CC[C@H](NC(=O)c1cc(F)ccc1[N-]S(=O)(=O)c1cccc2cccnc12)c1ccccc1.[Na+],Wnt reporter firefly/Renilla luciferase ratio,concentration: 0.1 uM,1.22
same,Wnt reporter firefly/Renilla luciferase ratio,concentration: 1 uM,1.08
same,Wnt reporter firefly/Renilla luciferase ratio,concentration: 10 uM,1.18
same,Wnt reporter firefly/Renilla luciferase ratio,concentration: 100 uM,0.234
C[C@]12CC[C@@H]3c4ccc(O)cc4CC[C@H]3[C@@H]1CC[C@H]2O [17alpha-Estradiol],Wnt reporter firefly/Renilla luciferase ratio,concentration: 0.1 uM,0.699
same,Wnt reporter firefly/Renilla luciferase ratio,concentration: 1 uM,1.04
same,Wnt reporter firefly/Renilla luciferase ratio,concentration: 10 uM,0.715
c1ccc(Nc2ccccc2)cc1 [Diphenylamine],Wnt reporter firefly/Renilla luciferase ratio,concentration: 0.01 uM,1.05
same,Wnt reporter firefly/Renilla luciferase ratio,concentration: 0.1 uM,1.08
same,Wnt reporter firefly/Renilla luciferase ratio,concentration: 1 uM,1.19
same,Wnt reporter firefly/Renilla luciferase ratio,concentration: 10 uM,1.18
same,Wnt reporter firefly/Renilla luciferase ratio,concentration: 100 uM,1.24
C[C@]12C[C@H](O)[C@H]3[C@@H](CCC4=CC(=O)CC[C@@]43C)[C@@H]1CC[C@@H]2C(=O)CO [Corticosterone],Wnt reporter firefly/Renilla luciferase ratio,concentration: 0.1 uM,1.12
same,Wnt reporter firefly/Renilla luciferase ratio,concentration: 1 uM,1.15
same,Wnt reporter firefly/Renilla luciferase ratio,concentration: 10 uM,1.13
same,Wnt reporter firefly/Renilla luciferase ratio,concentration: 100 uM,0.318
[Cl-].[Li+],Wnt reporter firefly/Renilla luciferase ratio,concentration: 0.01 uM,0.768
same,Wnt reporter firefly/Renilla luciferase ratio,concentration: 0.1 uM,0.845
same,Wnt reporter firefly/Renilla luciferase ratio,concentration: 1 uM,0.926
same,Wnt reporter firefly/Renilla luciferase ratio,concentration: 10 uM,0.875
same,Wnt reporter firefly/Renilla luciferase ratio,concentration: 100 uM,1.27
CC(=O)OC[C@H]1O[C@@](COC(C)=O)(O[C@H]2O[C@H](COC(C)=O)[C@@H](OC(C)=O)[C@H](OC(C)=O)[C@H]2OC(C)=O)[C@@H](OC(C)=O)[C@@H]1OC(C)=O [Sucrose octaacetate],Wnt reporter firefly/Renilla luciferase ratio,concentration: 0.1 uM,1.11
same,Wnt reporter firefly/Renilla luciferase ratio,concentration: 1 uM,1
same,Wnt reporter firefly/Renilla luciferase ratio,concentration: 10 uM,1.08
same,Wnt reporter firefly/Renilla luciferase ratio,concentration: 100 uM,1.08
CN(Cc1cnc2nc(N)nc(N)c2n1)c1ccc(C(=O)N[C@@H](CCC(=O)O)C(=O)O)cc1 [Methotrexate],Wnt reporter firefly/Renilla luciferase ratio,concentration: 0.1 uM,0.309
same,Wnt reporter firefly/Renilla luciferase ratio,concentration: 10 uM,0.383
same,Wnt reporter firefly/Renilla luciferase ratio,concentration: 100 uM,0.459
CC(C)c1cccc(C(C)C)c1N1C(=O)c2ccc(O)cc2C1=O,Wnt reporter firefly/Renilla luciferase ratio,concentration: 0.1 uM,1.19
same,Wnt reporter firefly/Renilla luciferase ratio,concentration: 1 uM,1.17
same,Wnt reporter firefly/Renilla luciferase ratio,concentration: 10 uM,0.259
CN1CCC(c2c(O)cc(O)c3c(=O)cc(-c4ccccc4Cl)oc23)C(O)C1 (stereo not given) [Flavopiridol],Wnt reporter firefly/Renilla luciferase ratio,concentration: 0.01 uM,1.17
same,Wnt reporter firefly/Renilla luciferase ratio,concentration: 0.1 uM,2
CC1(C)NC(=O)N(c2ccc([N+](=O)[O-])c(C(F)(F)F)c2)C1=O [Nilutamide],Wnt reporter firefly/Renilla luciferase ratio,concentration: 0.1 uM,1.2
same,Wnt reporter firefly/Renilla luciferase ratio,concentration: 1 uM,1
same,Wnt reporter firefly/Renilla luciferase ratio,concentration: 10 uM,0.785
same,Wnt reporter firefly/Renilla luciferase ratio,concentration: 100 uM,0.403
COc1cc2c3c(n(CCCn4ccnc4)c(=O)c2cc1OC)-c1cc2c(cc1C3=O)OCO2.Cl,Wnt reporter firefly/Renilla luciferase ratio,concentration: 0.01 uM,1.15
same,Wnt reporter firefly/Renilla luciferase ratio,concentration: 0.1 uM,0.457
same,Wnt reporter firefly/Renilla luciferase ratio,concentration: 1 uM,0.72
same,Wnt reporter firefly/Renilla luciferase ratio,concentration: 10 uM,0.631
same,Wnt reporter firefly/Renilla luciferase ratio,concentration: 100 uM,0.938
O=C(O)c1ccccc1C(c1ccc(O)cc1)c1ccc(O)cc1 [Phenolphthalin],Wnt reporter firefly/Renilla luciferase ratio,concentration: 0.1 uM,0.794
same,Wnt reporter firefly/Renilla luciferase ratio,concentration: 1 uM,0.751
same,Wnt reporter firefly/Renilla luciferase ratio,concentration: 10 uM,1.06
same,Wnt reporter firefly/Renilla luciferase ratio,concentration: 100 uM,1.6
CC(C)c1nnc2ccc(-c3ocnc3-c3cc(F)ccc3F)cn12,Wnt reporter firefly/Renilla luciferase ratio,concentration: 0.1 uM,0.481
same,Wnt reporter firefly/Renilla luciferase ratio,concentration: 1 uM,0.606
same,Wnt reporter firefly/Renilla luciferase ratio,concentration: 10 uM,0.539
same,Wnt reporter firefly/Renilla luciferase ratio,concentration: 100 uM,0.17
CN1CCN(c2ccccc2/C=C2\SCCN(c3ccc(Cl)c(Cl)c3)C2=O)CC1 [Elzasonan],Wnt reporter firefly/Renilla luciferase ratio,concentration: 0.1 uM,1.18
same,Wnt reporter firefly/Renilla luciferase ratio,concentration: 1 uM,1.03
same,Wnt reporter firefly/Renilla luciferase ratio,concentration: 10 uM,1.16
COC(=O)C12CCC(C)(C)CC1C1C(=O)C=C3C4(C)C=C(C#N)C(=O)C(C)(C)C4CCC3(C)C1(C)CC2 (stereo not given) [Bardoxalone-methyl],Wnt reporter firefly/Renilla luciferase ratio,concentration: 0.01 uM,1.25
same,Wnt reporter firefly/Renilla luciferase ratio,concentration: 0.1 uM,0.945
same,Wnt reporter firefly/Renilla luciferase ratio,concentration: 1 uM,0.246
Cc1cc(C=C2SC(=O)N(c3ccccc3)C2=O)c(C)n1-c1cccnc1,Wnt reporter firefly/Renilla luciferase ratio,concentration: 0.1 uM,0.482
same,Wnt reporter firefly/Renilla luciferase ratio,concentration: 1 uM,0.538
same,Wnt reporter firefly/Renilla luciferase ratio,concentration: 10 uM,0.389
same,Wnt reporter firefly/Renilla luciferase ratio,concentration: 100 uM,0.221
Nc1ncn([C@@H]2O[C@H](CO)[C@@H](O)[C@H]2O)c(=O)n1 [5-azacytidine],Wnt reporter firefly/Renilla luciferase ratio,concentration: 100 uM,2.42
[Cl-].c1ccc(C[n+]2cccc3ccccc32)cc1 [1-Benzylquinolinium chloride],Wnt reporter firefly/Renilla luciferase ratio,concentration: 0.1 uM,0.993
same,Wnt reporter firefly/Renilla luciferase ratio,concentration: 1 uM,0.903
same,Wnt reporter firefly/Renilla luciferase ratio,concentration: 10 uM,1.05
CCCCOCCOCCO [2-(2-Butoxyethoxy)ethanol],Wnt reporter firefly/Renilla luciferase ratio,concentration: 0.1 uM,0.859
same,Wnt reporter firefly/Renilla luciferase ratio,concentration: 1 uM,0.98
same,Wnt reporter firefly/Renilla luciferase ratio,concentration: 10 uM,0.872
same,Wnt reporter firefly/Renilla luciferase ratio,concentration: 100 uM,0.969
Cc1cc(=O)[nH]c(=S)[nH]1 [6-Methyl-2-thiouracil],Wnt reporter firefly/Renilla luciferase ratio,concentration: 0.1 uM,1.07
same,Wnt reporter firefly/Renilla luciferase ratio,concentration: 1 uM,1.13
same,Wnt reporter firefly/Renilla luciferase ratio,concentration: 10 uM,1.33
same,Wnt reporter firefly/Renilla luciferase ratio,concentration: 100 uM,1.37
O=c1c(O)c(-c2ccc(O)c(O)c2)oc2cc(O)cc(O)c12 [Quercetin],Wnt reporter firefly/Renilla luciferase ratio,concentration: 0.1 uM,1.1
same,Wnt reporter firefly/Renilla luciferase ratio,concentration: 1 uM,1.09
same,Wnt reporter firefly/Renilla luciferase ratio,concentration: 10 uM,1.38
CCC(C)c1ccccc1O (stereo not given) [2-(Butan-2-yl)phenol],Wnt reporter firefly/Renilla luciferase ratio,concentration: 0.1 uM,1.19
same,Wnt reporter firefly/Renilla luciferase ratio,concentration: 1 uM,0.977
same,Wnt reporter firefly/Renilla luciferase ratio,concentration: 10 uM,0.947
same,Wnt reporter firefly/Renilla luciferase ratio,concentration: 100 uM,1.14
CN(C)C(=O)C1(N2CCCCC2)CCN(CC[C@@]2(c3ccc(Cl)c(Cl)c3)CN(C(=O)c3ccccc3)CCO2)CC1,Wnt reporter firefly/Renilla luciferase ratio,concentration: 0.1 uM,0.929
same,Wnt reporter firefly/Renilla luciferase ratio,concentration: 1 uM,1.05
same,Wnt reporter firefly/Renilla luciferase ratio,concentration: 10 uM,0.811
CCCCC=O [Pentanal],Wnt reporter firefly/Renilla luciferase ratio,concentration: 0.1 uM,1.21
same,Wnt reporter firefly/Renilla luciferase ratio,concentration: 1 uM,1.06
same,Wnt reporter firefly/Renilla luciferase ratio,concentration: 10 uM,1.22
same,Wnt reporter firefly/Renilla luciferase ratio,concentration: 100 uM,1.4
CCCCCCCCCCCCc1ccccc1 [Dodecylbenzene],Wnt reporter firefly/Renilla luciferase ratio,concentration: 0.1 uM,1.06
same,Wnt reporter firefly/Renilla luciferase ratio,concentration: 1 uM,1.03
same,Wnt reporter firefly/Renilla luciferase ratio,concentration: 10 uM,1.08
same,Wnt reporter firefly/Renilla luciferase ratio,concentration: 100 uM,0.984
COC(=O)c1c(Cl)c(Cl)c(C(=O)OC)c(Cl)c1Cl [Chlorthal-dimethyl],Wnt reporter firefly/Renilla luciferase ratio,concentration: 0.1 uM,1.06
same,Wnt reporter firefly/Renilla luciferase ratio,concentration: 1 uM,0.924
same,Wnt reporter firefly/Renilla luciferase ratio,concentration: 10 uM,0.94
same,Wnt reporter firefly/Renilla luciferase ratio,concentration: 100 uM,0.903
"CC1(C)C(=O)N(Cl)C(=O)N1Cl [1,3-Dichloro-5,5-dimethylhydantoin]",Wnt reporter firefly/Renilla luciferase ratio,concentration: 100 uM,1.63
O=C(c1ccccc1)C1CCCCC1 [Cyclohexylphenylketone],Wnt reporter firefly/Renilla luciferase ratio,concentration: 0.1 uM,1.08
same,Wnt reporter firefly/Renilla luciferase ratio,concentration: 1 uM,0.971
same,Wnt reporter firefly/Renilla luciferase ratio,concentration: 10 uM,1.24
same,Wnt reporter firefly/Renilla luciferase ratio,concentration: 100 uM,1.51
CN1CCC[C@H]1c1cccnc1 [Nicotine],Wnt reporter firefly/Renilla luciferase ratio,concentration: 0.1 uM,1.15
same,Wnt reporter firefly/Renilla luciferase ratio,concentration: 1 uM,1.19
same,Wnt reporter firefly/Renilla luciferase ratio,concentration: 10 uM,1.12
same,Wnt reporter firefly/Renilla luciferase ratio,concentration: 100 uM,1.18
CCCCN1C(=O)[C@@H]([C@H](O)C2CCCCC2)NC(=O)C12CCN(Cc1ccc(Oc3ccc(C(=O)O)cc3)cc1)CC2.Cl [Aplaviroc hydrochloride],Wnt reporter firefly/Renilla luciferase ratio,concentration: 0.1 uM,1.15
same,Wnt reporter firefly/Renilla luciferase ratio,concentration: 1 uM,1.26
same,Wnt reporter firefly/Renilla luciferase ratio,concentration: 10 uM,1.03
same,Wnt reporter firefly/Renilla luciferase ratio,concentration: 100 uM,1.09
O=C(O)CC(O)C(=O)O (stereo not given) [Malic acid],Wnt reporter firefly/Renilla luciferase ratio,concentration: 0.1 uM,0.767
same,Wnt reporter firefly/Renilla luciferase ratio,concentration: 1 uM,0.818
same,Wnt reporter firefly/Renilla luciferase ratio,concentration: 10 uM,0.707
same,Wnt reporter firefly/Renilla luciferase ratio,concentration: 100 uM,0.783

# An excerpt of these results, as tab-separated lines.
compound	measurement	setting	value
CC1(C)NC(=O)N(c2ccc([N+](=O)[O-])c(C(F)(F)F)c2)C1=O [Nilutamide]	Wnt reporter firefly/Renilla luciferase ratio	concentration: 100 uM	0.403
COc1cc2c3c(n(CCCn4ccnc4)c(=O)c2cc1OC)-c1cc2c(cc1C3=O)OCO2.Cl	Wnt reporter firefly/Renilla luciferase ratio	concentration: 0.01 uM	1.15
same	Wnt reporter firefly/Renilla luciferase ratio	concentration: 0.1 uM	0.457
same	Wnt reporter firefly/Renilla luciferase ratio	concentration: 1 uM	0.72
same	Wnt reporter firefly/Renilla luciferase ratio	concentration: 10 uM	0.631
same	Wnt reporter firefly/Renilla luciferase ratio	concentration: 100 uM	0.938
O=C(O)c1ccccc1C(c1ccc(O)cc1)c1ccc(O)cc1 [Phenolphthalin]	Wnt reporter firefly/Renilla luciferase ratio	concentration: 0.1 uM	0.794
